# Laboratory results: PubChem BioAssay AID493014 (National Center for Advancing Translational Sciences (NCATS), 2011)
# Some of the results follow. Further columns of the screen follow, without active or inactive calls. Most of these compounds were active or inconclusive in the main read-out, so they are no random draw. The note in brackets gives the kind of curve behind each potency; many fits are weak.
# Assay: qHTS Assay to Find Inhibitors of Chronic Active B-Cell Receptor Signaling
# Conditions: ABC-DLBCL IkBa-CBG/CBR reporter, luminescence ratio (green luciferase fused to IkBa over red control in TMD8 lymphoma cells), 4 h
# How it was run: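 TMD8 human ABC-DLBCL cells with doxycycline-inducible IκBα–green luciferase fusion and unfused red luciferase, in 0.5% FBS medium; compounds up to 46 uM, 4 h at 37C. Green/red luminescence ratio, filter-overlap corrected, fitted to concentration-response curves.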
# [1] = measured here: CBR red luminescence, cell number
# [2] = measured here: IkBa-CBG green luminescence
SMILES,AC50 [1],AC50 [2]
Cc1cc(=O)[nH]c2nnc(-c3ccc(Cl)cc3)n12,"0.891 µM [falling, full curve]",–
COc1ccc(C(=S)N2CCN(c3cccc(Cl)c3)CC2)cc1,"0.1 µM [rising, full curve, poor fit]",–
O=C(CSCc1ccccc1)Nc1ccc(Cl)cn1,"2.91 µM [rising, partial curve]",–
COC(=O)c1cc(NC(=O)c2sc3ncn(Cc4cccc(F)c4)c(=O)c3c2C)cc(C(=O)OC)c1,"6.31 µM [rising, partial curve]",–
CCn1c(SCC(=O)Nc2oc(-c3ccccc3)c(-c3ccccc3)c2C#N)nnc1-c1ccncc1,"29.1 µM [rising, single point]",–
COc1ccc(NC(=O)CSc2nc3[nH]ncc3c(=O)n2-c2ccccc2C)cc1OC,"4.11 µM [rising, full curve, poor fit]",–
Cc1cc(C)n(C(=O)CNC(=O)C2COc3ccccc3O2)n1 (centres undefined),"6.51 µM [rising, single point]",–
Cc1cc(C)cc(NC(=O)N2CCc3ccccc3C2)c1,"20 µM [falling, partial curve, poor fit]",–
CC(=O)c1ccc2c(c1)Cc1cc(C(C)=O)ccc1-2,"2.31 µM [rising, full curve]",–
O=C(Nc1ccccc1)c1nc2ccccc2s1,"4.11 µM [falling, full curve]",–
Cn1sc(NC(=O)c2ccccc2)nc1=O,"20 µM [falling, single point]",–
CN(C(=O)CSc1nnc(-c2n[nH]c3ccccc23)o1)c1ccccc1,"16.4 µM [falling, partial curve]",–
COc1cccc(CN(C(=O)c2cc3ccccc3oc2=O)C2CCS(=O)(=O)C2)c1 (centres undefined),"3.55 µM [rising, partial curve, poor fit]",–
C/C=C(/C)C(=O)O[C@@H]1c2c(ccc3ccc(=O)oc23)OC(C)(C)[C@@H]1OC(=O)/C(C)=C\C,"29.1 µM [falling, single point]",–
CCn1c(O)c(N=NC(=O)CNC(=O)c2ccco2)c2ccccc21,"32.6 µM [falling, single point]",–
Cc1cc(C)c(OCCn2ccnc2)c(C)c1,"35.5 µM [rising, single point]",–
COc1ccc(/C=N/n2c(SC)nnc(C(C)(C)C)c2=O)cc1OC,"5.8 µM [rising, full curve]",–
Cc1nn(C)cc1/C=N/NC(=S)Nc1ccc(Cl)cc1Cl,"2.31 µM [rising, full curve]",–
Cc1ccc(C2CC(c3ccccc3)=NN2C(=S)Nc2ccccc2)o1 (centres undefined),"10.3 µM [falling, partial curve, poor fit]",–
CCOC(=O)CSc1nc2c(sc(=S)n2-c2ccccc2OC)c(=O)n1-c1ccccc1OC,"35.5 µM [rising, single point]",–
Cc1ccc(S(=O)(=O)CCC(=O)OCC(=O)c2c[nH]c3ccccc23)cc1,"16.4 µM [falling, partial curve]",–
CC1(C)CN(c2cccc(-c3ccnc4ncnn34)c2)C1=O,"11.2 µM [rising, partial curve]",–

SMILES,AC50 [1],AC50 [2]
Cc1cccc(NC(=O)c2cccc(OC(=S)N3CCOCC3)c2)c1,"1.26 µM [falling, single point]",–
CC(=O)Cn1nnc(-c2ccc(C(F)(F)F)cc2)n1,"3.55 µM [rising, partial curve, poor fit]",–
Cc1ccc(Oc2ccc(OCC(=O)NC(CC(C)C)C(=O)O)cc2)cc1 (centres undefined),"35.5 µM [falling, single point]",–
COc1cc([N+](=O)[O-])ccc1NC(=O)CN1CCCC1,"12.6 µM [falling, partial curve, poor fit]",–
Cc1cccc(NC(=S)NNC(=S)NC2CCCCC2)c1C,"14.1 µM [falling, single point]",–
Cc1ccccc1CN1CCc2c(OCC(=O)N3CCCc4ccccc43)cccc2C1=O,"29.1 µM [falling, single point]",–
CCN(CC)C(=O)CC(c1ccc(N(C)C)cc1)c1c(O)cc(OC)cc1OC (centres undefined),"6.31 µM [rising, single point]",–
O=C(COc1nsnc1N1CCOCC1)Nc1cccc(Cl)c1,"35.5 µM [falling, partial curve, poor fit]",–
O=C(NCCCn1ccnc1)Nc1ccc(Cl)cc1Cl,"5.01 µM [rising, single point]",–
O=C(NCCc1ccccc1)c1cccc(N2C(=O)C3CC=CCC3C2=O)c1 (centres undefined),"35.5 µM [falling, single point]",–
COc1ccc(CCNC(=O)c2cnc3n(c2=O)CCS3)cc1OC,"20.6 µM [rising, single point]",–
COC(=O)/C=C/c1ccccc1S(=O)(=O)N(Cc1ccccc1)Cc1ccco1,"17.8 µM [rising, single point]","22.4 µM [falling, single point]"
O=C(Nc1ccc(F)cc1)Nc1ccc(Oc2ncnc3cc(Cl)ccc23)nc1,"0.1 µM [rising, full curve, poor fit]",–
COc1ccc(-c2cc(C(C)=O)c(C)n2CCC(=O)Nc2ccc(C(F)(F)F)cc2)cc1,"17.8 µM [rising, single point]",–
CC(C)(C)C(=O)/C=c1\[nH]c(=O)/c(=C\c2ccc(F)cc2)s1,"0.184 µM [falling, full curve, poor fit]",–
O=C(O)c1cccc(NC(=S)N/N=C/c2ccccn2)c1,"10 µM [falling, partial curve]",–
O/N=C/c1cc(Cl)ccc1OCc1ccccc1Cl,"12.6 µM [rising, single point]",–
Cc1ccc2nc(-c3cccnc3SCC(=O)N3c4ccccc4CC3C)[nH]c2c1 (centres undefined),"0.82 µM [falling, full curve, poor fit]",–
CC(Sc1nc(N2CCOCC2)c2c(c1C#N)CC(C)(C)OC2)C(=O)O (centres undefined),"1.78 µM [falling, partial curve, poor fit]",–
COc1ccc(-c2ccc(=O)n(Cc3cccc([N+](=O)[O-])c3)n2)cc1,"1.12 µM [falling, single point]",–
C=CCOc1ccc(C(=O)Nc2ccc3c(c2)n(C)c(=O)n3C)cc1,"22.4 µM [rising, partial curve, poor fit]","20 µM [falling, single point]"
O=C(N/N=C/c1c(-c2ccccc2)[nH]c2ccccc12)c1cccnc1,"11.2 µM [falling, partial curve]",–

# 2 records picked at random from the list so far, as already listed:
SMILES,AC50 [1],AC50 [2]
O=C(NCCCn1ccnc1)Nc1ccc(Cl)cc1Cl,"5.01 µM [rising, single point]",–
COC(=O)/C=C/c1ccccc1S(=O)(=O)N(Cc1ccccc1)Cc1ccco1,"17.8 µM [rising, single point]","22.4 µM [falling, single point]"

# Next entries.

SMILES,AC50 [1],AC50 [2]
C/C(=N\O)C1CC(CC(=O)O)C1(C)C (centres undefined),"4.47 µM [rising, single point]",–
CC(=O)Oc1ccccc1-c1nc(/C=C/c2ccccc2)no1,"10 µM [falling, partial curve]",–
COc1ccc2nc(NC(=O)CSC3=NCCS3)sc2c1,"22.4 µM [falling, single point]",–
CCCC(=O)Nc1ccccc1NC(C)=O,"0.447 µM [falling, partial curve, poor fit]",–
O=C(N/N=C/c1ccco1)c1cc(C2CC2)[nH]n1,"35.5 µM [falling, partial curve, poor fit]",–
O=C(C1CCCN(S(=O)(=O)c2ccc(Br)cc2)C1)N1CCOCC1 (centres undefined),"0.112 µM [rising, full curve, poor fit]",–
CC1=Nc2cc(C(=O)NCCCOC(C)C)ccc2Sc2ccc(C)cc21,–,"6.31 µM [falling, full curve]"
CC(Oc1cccc(F)c1)C(=O)Nc1ccc(N2CCOCC2)cc1 (centres undefined),"29.1 µM [rising, single point]",–
COc1ccc(OC)c(/C=N/NC(=O)CSc2nnc(C)n2-c2ccccc2)c1,"7.08 µM [falling, partial curve]",–
CCC(=O)N1CCN(c2nc3ccc(Br)cc3s2)CC1,"0.562 µM [rising, full curve]",–
O/N=C1\CC/C(=N\O)c2nn(-c3ccccc3Cl)nc21,"22.4 µM [falling, single point]",–
Cc1ccc(F)cc1NC(=O)/C=C/c1ccc(S(=O)(=O)N2CCOCC2)cc1,"0.164 µM [falling, full curve]",–
CCCSc1nc(=S)n(Cc2ccccc2)c(C)c1C(C)=O,"5.01 µM [rising, single point]","12.6 µM [falling, single point]"
O=S(=O)(c1ccc2c(c1)nc1n2CCC1)N1CCOCC1,"14.6 µM [falling, partial curve]",–
Cc1ccc(-n2c3c(cc(C(=O)NC4CCSC4=O)c2=O)C(=O)CCC3)cc1 (centres undefined),"29.1 µM [rising, single point]",–
CCOC(=O)c1nnsc1-c1ccc(-c2snnc2C(=O)OCC)cc1,"2.82 µM [rising, partial curve, poor fit]",–
CCN(Cc1ccccc1)C(=S)Nc1cc(C(=O)OC)ccc1C(=O)OC,"0.92 µM [rising, full curve, poor fit]",–
CN(C)S(=O)(=O)c1ccc(NC=C(C#N)C#N)cc1,"35.5 µM [falling, single point]",–
CCn1cc([N+](=O)[O-])c(C(=O)Nc2nc3ccc(OC)cc3s2)n1,"10 µM [falling, partial curve]",–
c1csc(-c2noc(CN3CCc4sccc4C3)n2)c1,"0.251 µM [rising, full curve, poor fit]",–
CC(C)(C)NC(=O)c1cc2c(ccc3ccccc32)oc1=O,"5.01 µM [rising, full curve, poor fit]",–
O=C(Nc1ccc(Oc2ccccc2)nc1)C1CCCCN1Cc1ccc(O)cc1 (centres undefined),"0.562 µM [rising, full curve, poor fit]",–
